68 sequences from PubChem BioAssay AID1508600 (Functional Genomics Laboratory (NCATS/FGL), 2020) can be followed below.

In all, about 53,000 sequences went through this assay and about 3,700 (7%) were called active.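 Rule for the calls: active = gene knockdowns whose robust z-score for IL-1 alpha signal is at least 2 or at most -2, so actives lie on both sides; inactive = the rest.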 This is one part of the list.

This assay in a line: Components of the Cytosolic LPS Sensing Pathway: Gene Identification via Genome-wide siRNA Screen.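 Note: robust z of the log signal after scaling to non-targeting control siRNA wells of the plate.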 The following applies: RAW264.7 macrophages, IL-1a HTRF, actives lie on both sides, screened at 100 nM (by protocol), cells primed 5 h with Pam3CSK4 first. The gist of the method:
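Cells (RAW264.7, 1×10^4 per well) were transfected with siRNA at 100 nM and cultured 48h at 37 degrees C. Pam3CSK4 was added for 5 hours; LipidA transfection followed for 24 hour. IL-1a was then measured by HTRF.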
Background: TR-FRET usually uses a lanthanide donor and a delayed reading to cut background.
Turning to GUUUCAAAUCCCAGAGAAGTT against Defb7, the z-score was inactive: -0.0344.

CGAGGCCUGGAAGGACUUUTT against Klhl8: the z-score is inactive: 0.0877.

On to GGCAGGCAAACAGUGAUCATT against Lsm4, for which the z-score was inactive: -0.909.

For the sequence GGUCCUACUUACUACUGCCTT against Fam83h, the z-score was inactive: 0.265.

Turning to GGAAGAAGAUGGUUCCGAATT against Ankzf1, the z-score is inactive: 0.611.

With GCUUAGUAAUGCUAACAUUTT against Parg, the z-score was inactive: 1.21.

On to GGAUGAAGCAUUUAUUCCATT against Bmpr1a, for which the z-score is inactive: -0.542.

In the case of CCUUCUUGCUUCAGAGCAGTT against Slc34a3, the z-score was inactive: 1.97.

As for GGGAAUAAAGUGUUUGUUUTT against Phf20l1, the z-score is inactive: 0.0731.

In the case of GCGUGCUCUUUUUAACUACTT against Septin10, the z-score was inactive: 1.06.

With GGACCAGAACCGUUACUUATT against Bet1l, the z-score was inactive: 0.341.

For the sequence GGCUAGGACCUAUACCAUUTT against Aprt, the z-score is inactive: 1.14.

Take GGAUUCUUGAAGCUGUUUUTT against Tmbim4: the z-score was inactive: -1.06.

Regarding GGCGGAAGAGAAAGACAGCTT against Tle3, the z-score was inactive: 1.39.

For the sequence GGUAUUAUGGCUGUGGUCUTT against As3mt, the z-score is inactive: -1.35.

GCAACACACUGCUUCCUGGTT against Tmem19: the z-score was inactive: -1.38.

On to GGCUGUUUACACGUUAGUGTT against Diablo, for which the z-score is inactive: -0.0319.

For the sequence CCUUUUGUUAGUGAGUUAGTT against Ywhag, the z-score was inactive: 0.269.

Regarding “GGGAAUCUGGCCAUACUAGTT against 1700022I11Rik”, the z-score is inactive: 0.268.

For the sequence GGGCUUGAUUUGAUCCUGGTT against Nt5el, the z-score is inactive: -0.99.

With GCUUAGACAACGACAUUUCTT against Mcoln3, the z-score was active: 2.04.

Turning to GAUUGUGUCGUCCAUUACATT against Tuba3a, the z-score was inactive: -0.546.

Take GGAUCACCACUACUUUAAATT against Cops5: the z-score was inactive: -0.161.

As to GGUUCCUGAACAUCCUUUUTT against Hyal3, the z-score was inactive: -0.166.

Turning to GGAAACCUACCGUUACCUATT against Kcnj5, the z-score is inactive: -0.181.

CCCUCAUUUACUCUAGUAATT against Defb12: the z-score is inactive: 0.714.

As for GGUCAGAAUGAAUUCAGUUTT against Il10rb, the z-score was inactive: 1.23.

For the sequence GGUCUUCUUUGAUGUGAGGTT against Ppic, the z-score was inactive: -0.832.

As for CCAUGUGCUGUGCACUACGTT against Chst14, the z-score is inactive: 0.358.

With GCUCAAGGUCUCAUUUUUATT against Il18bp, the z-score was inactive: -0.463.

Take GGUCUUCAAAGACAUCAGCTT against F11: the z-score is inactive: -0.156.

Turning to CCAAUCGGUGAUCAAGAAATT against Tfap2e, the z-score was inactive: -0.525.

GCGAACCUGCUCACCCUUUTT against Grhl3: the z-score is inactive: 0.68.

Take CCCAUAAUGAUAUAAACCUTT against Ulbp1: the z-score was inactive: 0.426.

Consider GCAAUUGAAAGCUUCGCCCTT against Mcf2l, for which the z-score was inactive: -0.423.

As to UGUAAUCACCCACUUUUUCTT against Olfr384, the z-score was inactive: 1.93.

GGGAGCUUUGAAGAGGCUGTT against Olfr130: the z-score is inactive: -0.604.

Take GCUGAAUCAUUGAUUUACCTT against Tmem183a: the z-score is inactive: 0.689.

GGACGAAAUCUUGUCUGAUTT against Atg4b: the z-score was active: 2.59.

In the case of GGAUCCAGUCUAAUAAGAATT against Abcb1a, the z-score was inactive: -0.35.

With CCUCGUAGGGCCUAUGGUATT against Cyth4, the z-score was active: -2.17.

GCCACCAGUGCUUUUCAAGTT against Ap5b1: the z-score was inactive: -0.41.

Consider GGGAGCAGAUUUUAAGAGUTT against Rala, for which the z-score is inactive: 0.763.

Consider GGAGAUGAAGUUCCAAAAGTT against Ifi27l2a, for which the z-score is inactive: 1.54.

On to CCAGUGUUUACUCAAACAGTT against Snai2, for which the z-score is inactive: 0.792.

With GCAUGUUUCCCUACUAUGATT against Dcaf8l, the z-score is inactive: -1.57.

With GGUAUCAUCUAUAGAGACUTT against Prkch, the z-score is inactive: -0.265.

In the case of GGACAAGGCAGUGUUUCCATT against Sost, the z-score is inactive: 0.878.

With GGCCAGCAGAUAUAUAGAGTT against Ubxn8, the z-score is inactive: 0.438.

For GGUGACAACUGACUUCGAATT against Pramel32, the z-score is inactive: 0.321.

Regarding CCAGAUUCUAAUACGUACATT against Sec63, the z-score was inactive: 0.436.

For CCUGUACCCGAACAUACCATT against Fabp12, the z-score was inactive: -1.06.

GCCCGAAAAAGAGAACUGATT against Wbp11: the z-score is inactive: 0.056.

Take GCUUUAGGUCCAAUAAAAUTT against Wdr53: the z-score is inactive: -0.87.

GCAACUCUAGUGUAUGGGATT against Slc39a4: the z-score is inactive: 0.762.

Take GGUGGAAUUUUCAACUUACTT against Nkx3-1: the z-score was active: 5.36.

Consider GGAGUGCAAGGACUUUGUGTT against Ift20, for which the z-score is inactive: -0.738.

As to GCUUGGCUUCAGCAUAUGCTT against Phox2b, the z-score is inactive: -0.867.

On to GCUGACCAUUUUGAUGCCCTT against Adi1, for which the z-score is inactive: -0.0381.

As for GGAGACCUUCAACUUGUACTT against Ephb1, the z-score was inactive: -0.134.

Turning to GGCGUAGGUCACCACAUUGTT against Spin2c, the z-score was inactive: 1.51.

With GCACAGACUGAGAGGAAAATT against Mog, the z-score was inactive: 0.0718.

For GGCUCAGCAUGUGUCAUACTT against Slc25a39, the z-score is inactive: 1.77.

GCACAUGUGUUUAUACAUUTT against Sfxn3: the z-score is inactive: -0.556.

Regarding GGAGUUGGAGGAAAGAAUUTT against Prl3b1, the z-score is inactive: 0.655.

In the case of GGCCAUUUUGCCUAAGAAGTT against Fam207a, the z-score is inactive: -0.757.

Turning to GUUUAUAGGUAACUGUCACTT against Defb11, the z-score was inactive: -0.0983.

Consider CGGUUAGAGCAUUAAGUUCTT against Lias, for which the z-score is inactive: 0.817.
